PubChem BioAssay AID1224828 | NIAID, 2016
In all, the deposit lists about 17,000 reagents; below is a random part of them. Of all reagents, 762 (4.5%) were called active. 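Active calls include both raised and lowered p65 entry, mostly lowered; wells with fewer than 50 cells lack a z-score.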 Raw values vary from plate to plate and are shown uncorrected. The numbers tell different reagents against one gene apart.

- Test: 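Knock-downs that increase or decrease LPS-induced p65 nuclear translocation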 (primary screen)
- Cells: mouse RAW264.7 G9 macrophage reporter cells (GFP-p65, Tnf promoter-mCherry)
- Reagent: siRNA pool against mouse genes, 100 nM
- Time to read-out: 2 days siRNA transfection, then 40 min LPS before fixation
- Conditions: LPS (Salmonella minnesota R595) at 10 ng/ml
- Read-out: 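Microscopy ratio of nuclear to perinuclear-ring GFP-p65 signal, scaled to the plate median; gene score is the average of two replicate robust z-scores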
- Scale: p65 translocation robust z-score: higher = more nuclear NF-kappaB p65 after LPS than the plate median; nuclear/cytoplasmic p65 ratio: higher = more nuclear NF-kappaB p65
- Hit rule: 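Active if robust z is above 3.3 (negative regulators) or below -1.56, the Tlr4 control median (positive regulators); activity score 50 or more; control wells not called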
- Meaning of the calls: active = hit (p65 shift raised or lowered); inactive = no clear change

no.	gene knocked down	reagent	p65 translocation robust z-score	nuclear/cytoplasmic p65 ratio, rep 1	nuclear/cytoplasmic p65 ratio, rep 2	low cell count flag	Call
1	Ndufaf5 (NADH:ubiquinone oxidoreductase complex assembly factor 5)	1		1.22	1.02	fewer than 50 cells per well; well left out of scoring	inactive
2	Zfyve19 (zinc finger, FYVE domain containing 19)	1	0.07	1.46	1.26	enough cells to score	inactive
3	Rida (reactive intermediate imine deaminase A homolog)	1	0.01	1.36	1.56	enough cells to score	inactive
4	Kpna1 (karyopherin subunit alpha 1)	1	-1.39	1.31	1.18	enough cells to score	inactive
5	Cldn1 (claudin 1)	1	-2.02	1.22	1.12	enough cells to score	active
6	Rer1 (retention in endoplasmic reticulum sorting receptor 1)	1		1.28	1.99	fewer than 50 cells per well; well left out of scoring	inactive
7	Gtf2e1	1	-1.21	1.2	1.29	enough cells to score	inactive
8	Inpp5k (inositol polyphosphate 5-phosphatase K)	1		1.55	1.19	fewer than 50 cells per well; well left out of scoring	inactive
9	Chchd1 (coiled-coil-helix-coiled-coil-helix domain containing 1)	1	3.39	1.96	1.96	enough cells to score	active
10	Apaf1 (apoptotic peptidase activating factor 1)	1	0.28	1.69	1.63	enough cells to score	inactive
11	Zfp661 (zinc finger protein 661)	1	0.08		1.47	enough cells to score	inactive
12	Pira1 (paired-Ig-like receptor A1)	1	0.6	1.5	1.25	enough cells to score	inactive
13	Tppp (tubulin polymerization promoting protein)	1		1.03	1.16	fewer than 50 cells per well; well left out of scoring	inactive
14	Bccip (BRCA2 and CDKN1A interacting protein)	1	0.7	1.7	1.74	enough cells to score	inactive
15	Aqp11 (aquaporin 11)	1		1.35	1.58	fewer than 50 cells per well; well left out of scoring	inactive
16	Kcnma1	1	-0.14	1.48	1.34	enough cells to score	inactive
17	Tomm22 (translocase of outer mitochondrial membrane 22)	1	-0.3	1.35	1.14	enough cells to score	inactive
18	Usp17la (ubiquitin specific peptidase 17-like A)	1	1	1.59	1.5	enough cells to score	inactive
19	Cipc (CLOCK interacting protein, circadian)	1		1.27	1.22	fewer than 50 cells per well; well left out of scoring	inactive
20	Trp53inp1	1	-0.58	1.46	1.39	enough cells to score	inactive
21	Hmgb1 (high mobility group box 1)	1	-0.07	1.13	1.55	enough cells to score	inactive
22	Pgap1 (post-GPI attachment to proteins 1)	1	0.6	1.67	1.62	enough cells to score	inactive
23	Atosa (atos homolog A)	1	-0.34	1.49	1.83	enough cells to score	inactive
24	Mthfd1l	1	0.29	1.65	1.49	enough cells to score	inactive
25	Hmox2 (heme oxygenase 2)	1	-1.64	1.18	1.2	enough cells to score	active

No new results follow: an excerpt of the list.
no.	gene knocked down	reagent	p65 translocation robust z-score	nuclear/cytoplasmic p65 ratio, rep 1	nuclear/cytoplasmic p65 ratio, rep 2	low cell count flag	Call
7	Gtf2e1	1	-1.21	1.2	1.29	enough cells to score	inactive
8	Inpp5k (inositol polyphosphate 5-phosphatase K)	1		1.55	1.19	fewer than 50 cells per well; well left out of scoring	inactive
9	Chchd1 (coiled-coil-helix-coiled-coil-helix domain containing 1)	1	3.39	1.96	1.96	enough cells to score	active

Further records:
no.	gene knocked down	reagent	p65 translocation robust z-score	nuclear/cytoplasmic p65 ratio, rep 1	nuclear/cytoplasmic p65 ratio, rep 2	low cell count flag	Call
26	Uty	1		1.23	1.25	fewer than 50 cells per well; well left out of scoring	inactive
27	4933428P19Rik (RIKEN cDNA 4933428P19 gene)	1	-0.11	1.35	1.45	enough cells to score	inactive
28	Prmt2 (protein arginine N-methyltransferase 2)	1	-0.98	1.34	1.22	enough cells to score	inactive
29	Gipc3 (GIPC PDZ domain containing family, member 3)	1	0.48	1.57	1.2	enough cells to score	inactive
30	Pi4kb (phosphatidylinositol 4-kinase beta)	1		1.48	1.29	fewer than 50 cells per well; well left out of scoring	inactive
31	Csnk1d (casein kinase 1, delta)	1	-1.47	1.43	1.22	enough cells to score	inactive
32	Usp5 (ubiquitin specific peptidase 5 (isopeptidase T))	1	-1.48	1.45	1.16	enough cells to score	inactive
33	Mpp3	1		1.65	1.46	fewer than 50 cells per well; well left out of scoring	inactive
34	Slc30a1	1		1.27	1.17	fewer than 50 cells per well; well left out of scoring	inactive
35	Reln (reelin)	1	0.34	1.57	1.56	enough cells to score	inactive
36	Pcdha10 (protocadherin alpha 10)	1	0.27	1.56	1.21	enough cells to score	inactive
37	Rigi (RNA sensor RIG-I)	1	1.37	1.73	1.78	enough cells to score	inactive
38	Slc36a1	1		1.13	0.971	fewer than 50 cells per well; well left out of scoring	inactive
39	Lancl3 (LanC lantibiotic synthetase component C-like 3 (bacterial))	1	-0.12	1.27	1.53	enough cells to score	inactive
40	H2-Q2 (histocompatibility 2, Q region locus 2)	1	-2.28	1.23	1.1	enough cells to score	active
41	Cd2 (CD2 antigen)	1	0.65	1.39	1.46	enough cells to score	inactive
42	Prpf4b (pre-mRNA processing factor 4B)	1	0.21	1.65	1.46	enough cells to score	inactive
43	Snurf (SNRPN upstream reading frame)	1		1.3	1.3	fewer than 50 cells per well; well left out of scoring	inactive
44	Haus8 (4HAUS augmin-like complex, subunit 8)	1	-0.39	1.28	1.41	enough cells to score	inactive
45	Fam151a (family with sequence simliarity 151, member A)	1		1.42	1.67	fewer than 50 cells per well; well left out of scoring	inactive
46	Asb4 (ankyrin repeat and SOCS box-containing 4)	1	-1.29	1.32	1.42	enough cells to score	inactive
47	Grpel1 (GrpE-like 1, mitochondrial)	1	-1.05	1.56	1.33	enough cells to score	inactive
48	Dusp4 (dual specificity phosphatase 4)	1	-0.66	1.57	1.31	enough cells to score	inactive
49	Tent4b (terminal nucleotidyltransferase 4B)	1	0.22	1.64	1.65	enough cells to score	inactive
50	Or2b2b (olfactory receptor family 2 subfamily B member 2B)	1	0.76	1.66	1.66	enough cells to score	inactive
51	Ano10 (anoctamin 10)	1	0.24	1.57	1.8	enough cells to score	inactive
52	Dip2b (disco interacting protein 2 homolog B)	1	0.14	1.58	1.76	enough cells to score	inactive
53	Mdfic (MyoD family inhibitor domain containing)	1	1.91	1.79	1.72	enough cells to score	inactive
54	Kif5a (kinesin family member 5A)	1	-0.32	1.39	1.38	enough cells to score	inactive
55	Rab7b (RAB7B, member RAS oncogene family)	1	2.03	1.59	1.77	enough cells to score	inactive
56	Pdcd6 (programmed cell death 6)	1	-0.86	1.34	1.29	enough cells to score	inactive
57	Zfp536 (zinc finger protein 536)	1	1.82	1.24	1.45	enough cells to score	inactive
58	Enkd1 (enkurin domain containing 1)	1		1.16	1.22	fewer than 50 cells per well; well left out of scoring	inactive
59	Ccr9 (C-C motif chemokine receptor 9)	1	-0.9	1.44	1.38	enough cells to score	inactive
60	Zfp41 (zinc finger protein 41)	1	-0.32	1.43	1.49	enough cells to score	inactive
61	Slc35e2	1	0.99	1.2	1.67	enough cells to score	inactive
62	Ccdc136 (coiled-coil domain containing 136)	1	-0.28	1.62	1.7	enough cells to score	inactive
63	Slc22a13b	1	-1.11	1.26	1.41	enough cells to score	inactive
64	Wnt8a (WNT family member 8A)	1	-0.49	1.45	1.43	enough cells to score	inactive
65	Khdrbs2	1	0.85	1.5	1.7	enough cells to score	inactive
66	Eif2d (eukaryotic translation initiation factor 2D)	1	-1.01	1.63	1.33	enough cells to score	inactive
67	Trnt1 (tRNA nucleotidyl transferase, CCA-adding, 1)	1	-1.02	1.5	1.23	enough cells to score	inactive
68	Ptdss1 (phosphatidylserine synthase 1)	1	-0.17	1.36	1.39	enough cells to score	inactive
69	Dcpp1 (demilune cell and parotid protein 1)	1	-1.55	1.34	1.33	enough cells to score	inactive
70	Dcpp1 (demilune cell and parotid protein 1)	2		1.38	1.24	fewer than 50 cells per well; well left out of scoring	inactive
71	Cables1 (CDK5 and Abl enzyme substrate 1)	1		1.21	1.4	fewer than 50 cells per well; well left out of scoring	inactive
72	Lrrc66 (leucine rich repeat containing 66)	1	0.21	1.63	1.85	enough cells to score	inactive
73	Or7a35 (olfactory receptor family 7 subfamily A member 35)	1		1.51	1.45	fewer than 50 cells per well; well left out of scoring	inactive
74	2010013B10RIK	1		1.5	1.36	fewer than 50 cells per well; well left out of scoring	inactive
75	Prdx1 (peroxiredoxin 1)	1	0.12	1.53	1.41	enough cells to score	inactive
